PubChem BioAssay AID1487 (National Center for Advancing Translational Sciences (NCATS), 2009)
The list shows a part of the results. Shown are side measurements of this screen, not its main read-out; they come without a call. The list favours compounds with an active or inconclusive main result. Words in brackets tell the shape of the fitted curve; partial curves, single points and poor fits give uncertain potencies.

Experiment: qHTS Assay for Modulators of Lamin A Splicing
Conditions: HeLa LMNA splicing GFP/RFP minigene ratio, 48 h
Method in brief: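 S3 HeLa stable clones carrying a lamin A-EGFP splicing minigene plus DsRed2 were seeded at 600 cells/well in Opti-MEM with 2% FBS, pin-dosed and incubated 48 h at 37°C. Acumen cytometry (488 nm) gave the GFP/RFP total-intensity ratio.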

[1] = measured here: GFP splicing reporter channel
[2] = measured here: RFP viability control channel

Cc1ccc(OCC(=O)Nc2c[nH]c(=O)[nH]c2=O)cc1C
AC50 [1]: 35.5 µM [falling, single point]

O=C(O)c1ccc(/C=N/NC(=S)NC2CCCCC2)cc1
AC50 [1]: 10 µM [rising, partial curve, poor fit]

CCn1cc(CN2CCc3c([nH]c4ccccc34)C2c2ccc(F)c(OC)c2)c(C)n1 (stereo not given)
AC50 [1]: 3.98 µM [rising, single point]

Cc1ccc(CN2CCN(Cc3ccccc3-c3ccco3)CC2CCO)o1 (stereo not given)
AC50 [2]: 2.82 µM [falling, partial curve, poor fit]

CCN1CCN(CC(=O)Nc2sc3c(c2C#N)CCC(C)C3)CC1 (stereo not given)
AC50 [1]: 15.8 µM [falling, single point]
AC50 [2]: 22.4 µM [falling, single point]

COC(=O)c1ccc(C2C3=C(Nc4nnnn42)c2ccccc2OC3)cc1 (stereo not given)
AC50 [2]: 35.5 µM [rising, single point]

Cc1cc(-n2c(C)cc(C(=O)CSc3nnnn3-c3ccccc3)c2C)no1
AC50 [1]: 10 µM [rising, partial curve, poor fit]
AC50 [2]: 25.1 µM [rising, single point]

COCCn1c(C(=O)N2CCCC2)cc2c1C[C@H]1CN(C(=O)c3ccccc3)[C@@](Cc3ccc(F)cc3)(C(=O)OC)[C@@H]21
AC50 [2]: 15.8 µM [rising, single point]

CC1CN(S(=O)(=O)c2ccc(-c3nc4ccccc4s3)cc2)CC(C)O1 (stereo not given)
AC50 [1]: 6.31 µM [falling, single point]

Cc1ccc(N/C=C/C(=O)c2ccccc2)cc1C
AC50 [1]: 28.2 µM [rising, single point]
AC50 [2]: 17.8 µM [rising, single point]

CCn1c2ccccc2c2cc(NC(=O)C(C)C)ccc21
AC50 [2]: 35.5 µM [falling, single point]

Cc1sc2nc(CSc3ccccc3)nc(NCCN(C)C)c2c1C
AC50 [2]: 15.8 µM [rising, single point]

NC(=O)C1(N2CCCCC2)CCN(C(=S)Nc2cccc(Cl)c2)CC1
AC50 [2]: 31.6 µM [rising, single point]

Cc1ccc2nc(NC(=O)CCNS(=O)(=O)c3ccc(Br)s3)sc2c1
AC50 [2]: 12.6 µM [rising, partial curve]

COCCn1c(C)cc(C(=O)CSc2nc3ccccc3o2)c1C
AC50 [1]: 1.58 µM [rising, partial curve]
AC50 [2]: 11.2 µM [rising, partial curve]

CC(C)(C)n1nnnc1C(c1cccs1)N1CCN(Cc2ccc3c(c2)OCO3)CC1 (stereo not given)
AC50 [2]: 7.08 µM [rising, partial curve]
